Data from PubChem BioAssay AID1487 (National Center for Advancing Translational Sciences (NCATS), 2009).
“And” between values parts separate entries of the source, which are not always exact repeats. Equal values may be shown once. In all, about 200,000 compounds went through this assay and about 25 (0.01%) were called active. Inconclusive means that the source gave no clear call. Such entries were picked first, then a sample of the others. Calls come from the whole dose curve; as a rule, active = well fitted inhibition curve with a large enough effect in the signal ratio, with a control signal flat (not every such curve was filed as active); inconclusive = small, poorly fitted or top-dose-only effect, or effect the other way, or a change in a side signal; inactive = flat fitted curve, though single readings scatter; the % refers to the signal ratio. Potencies beside an inconclusive call are fits to weak or partial responses and may not hold up.

assay: qHTS Assay for Modulators of Lamin A Splicing; settings: HeLa LMNA splicing GFP/RFP minigene ratio, 48 h; ratio change, negative = inhibition: at 46.1 µM (top of the series) unless noted
Description: NCGC Assay Overview: Hutchinson-Gilford Progeria Syndrome (HGPS) is a pediatric premature aging disease caused by a spontaneous mutation in the lamin A/C (LMNA) gene. The mutation activates a cryptic splice site in the LMNA pre-mRNA which results in production of a pre-lamin A protein that cannot be processed properly. The mutant protein accumulates in the nucleus and negatively affects numerous cellular functions. Correction of the splicing defect in HGPS patient cells using a targeted oligonucleotide (exo11) leads to reversal of the cellular disease phenotypes. To identify small molecule modulators of aberrant LMNA splicing, a homogenous assay was constructed in HeLa cells that used a GFP containing minigene to report on correction of aberrant splicing in lamin A and a RFP (DsRed2) to report on cell viability, uniformity and nonspecific effects on the assay signal. This assay was adapted to laser-scanning microplate cytometry (Acumen, TTP Labtech) where miniaturization of the assay to a 1,536-well plate format was possible. References: Bowen, W. P.; Wylie, P. G. Application of Laser-Scanning Fluorescence Microplate Cytometry in High Content Screening. Assay Drug Dev Technol 2006;4:209-221. Scaffidi P, Misteli T. Reversal of the cellular phenotype in the premature aging disease Hutchinson-Gilford progeria syndrome. Nat.
NCGC Assay Protocol Summary: Reagents/Controls: Stable clones expressing DsRed2 and lamin A-EGFP were generated by Cell and Molecular Technologies in S3 HeLa cells. HeLa cells were prepared for the assay when they were 70-90% confluent. The cells were counted and resuspended in Opti-MEM I (no phenol red; Gibco), 2% FBS, 1% penicillin/ streptomycin (Gibco) at concentration of 120 cells/uL concentration. The suspension was passed through a Falcon basket filter with pore size 40um (Beckton Dickson). Control titrations: column […] 1536-well plate contained a sixteen point titration (1:2 dilutions) in duplicate of ancitabine (Sigma: A8598) beginning at 40 uM final concentration. Column 2 contained a sixteen point titration (1:2 dilutions) of cycloheximide beginning at 1.4 mM final concentration. Column 3 contained ancitabine at 40 uM and column 4 contained was the vehicle control (0.5% DMSO final concentration). Assay Steps: 5 uL of HeLa cells were plated in Aurora LoBase black clear bottom (cyclic-olefin polymer) 1536-well plates at a final density of 600 cells/well. Controls and library compounds were added with a 1536-well pin array using the Kalypsys pin-tool. The plates were then incubated for 48 hrs in a cell-culture incubator (37 °C; 5% CO2, 98% humidity). Following incubation the plates were read on the Acumen Explorer using the 488 nm laser. Data was collected on objects between 10 and 100 um in size. Cell objects were defined by a 15 um width x 10 um depth filter. The ratio of the total object intensity in PMT1 (500-530 nm emission; GFP) over PMT3 (575-640 nm emission; RFP) was calculated for analysis. Keywords: NIH Roadmap, MLSCN, MLI, MLSMR, qHTS, NCGC, lamin A, Progeria, RNA splicing.
% is set by controls: 0 for no effect and ±100 for the full control effect; potency is the fitted concentration of half-maximal effect.

| Structure (SMILES) | ratio change, negative = inhibition | Potency |
| --- | --- | --- |
| O=C(Nc1ccc(F)cc1F)c1cccn(Cc2ccccc2)c1=O | inconclusive: 27.6% [at 46 µM] |  |
| c1ccc2c3c([nH]c2c1)CNCC3 | inconclusive: 22.5% |  |
| Cc1ccc(/C=C2\C(=O)NC(=O)N(CCc3ccc(F)cc3)C2=O)o1 | inactive |  |
| O=c1[nH]c(=O)n(-c2ccccc2)c(O)c1/C=C/C=Nc1ccccc1 | inconclusive: -8.36% |  |
| Nc1c(Br)cc(Br)cc1CNC1CCC(O)CC1 (stereo unspecified) | inconclusive: -2.04% |  |
| COCCNC(=O)c1c(NC(=O)c2ccc(Br)o2)n(Cc2ccccc2)c2nc3ccccc3nc12 | inconclusive: 6.83% |  |
| O=C(NC1CN2CCC1CC2)c1ccc(-c2ccc([N+](=O)[O-])cc2)o1 (stereo unspecified) | inactive |  |
| O=C(O)Cn1cc(/C=C2\C(=O)NC(=O)N(Cc3ccco3)C2=O)c2ccccc21 | inactive |  |
| CC(=O)OC1C([N+]2(C)CCCCC2)C[C@H]2C3CC[C@H]4C[C@H](OC(C)=O)C([N+]5(C)CCCCC5)CC4(C)C3CCC12C (stereo partly specified) | inconclusive: 9.61% |  |
| O=c1[nH]c(=O)n(-c2ccc(Cl)cc2)c(O)c1C=Nc1ccc(S(=O)(=O)Nc2nccs2)cc1 | inactive |  |
| CCN(CC)C(=O)c1ccc(NC(=O)c2cccc(F)c2)cc1 | inactive |  |
| CCC1/C=C/C=CCC(C)C(O)[C@@](C)(O)C(=O)C(C)C(O)C(C)C(=O)C(C)C(O)C(C)C=CC(=O)O[C@H]2C(C)C(CC1)O[C@]1(CCC(C)C(CC(C)O)O1)C2C (stereo partly specified) |  | inconclusive: 5.62 µM [activator, partial curve, poor fit] |
| O=c1c2ccccc2nc(/C=C/c2ccc3c(c2)OCO3)n1-c1cccc(O)c1 |  | inconclusive: 20 µM [fluorescent, partial curve] |
| O=C1NC(=S)NC(=O)C12C(c1ccc(F)cc1)NC(=S)NC2c1ccc(F)cc1 (stereo unspecified) | inactive |  |
| O=P1(N(CCCl)CCCl)NCCCO1 (stereo unspecified) | inconclusive: -9.99% |  |
| c1ccc2c(c1)sc1ccccc12 | inconclusive: 3.37% |  |
| CCc1nc2ccccc2c(=O)n1-c1cccc(OC)c1 | inconclusive: 11.5% |  |
| CN1CCN(c2ccc(N)cc2)CC1 | inactive |  |
| CCN1C(=O)/C(=C/c2ccc3c(c2)CCN3CCCCl)C(=O)NC1=S | inactive |  |
| CN(C)[C@@H]1C(=O)C(C(N)=O)=C(O)[C@@]2(O)C(=O)C3=C(O)c4c(O)cccc4[C@@](C)(O)[C@H]3[C@H](O)[C@@H]12 | inactive |  |
| Cc1nc2c(C(=O)N3CCC4(CC3)OCCO4)cnn2c(C)c1Cc1cccc(Cl)c1 | inconclusive: 27.6% [at 9.22 µM] |  |
| C=CCN1C(=O)/C(=C\c2ccc(N3CCOCC3)o2)C(=O)NC1=S | inactive |  |

| Structure (SMILES) | ratio change, negative = inhibition | Potency |
| --- | --- | --- |
| CCC(C)N1C(=O)/C(=C\c2ccc(N3CCCCCC3)cc2)C(=O)NC1=S (stereo unspecified) | inactive |  |
| Cc1ccc(O)c(C(=O)c2cc(C(=O)NCc3ccccc3)c(=O)n(Cc3ccccc3)c2)c1 | inactive |  |
| CN1C2CCC1CC(OC(=O)c1cc(Cl)cc(Cl)c1)C2 (stereo unspecified) | inconclusive: -39.5% |  |
| COC(=O)[C@@H]1[C@@H](C(=O)OC)C2(c3ccccc3-c3ccccc32)N(c2ccc(Cl)cc2)N1C#N |  | inconclusive: 14.1 µM [inhibitor, partial curve] |
| COc1ccc(NC(=O)c2sc3nc4c(cc3c2N)N2CCC4CC2)cc1OC |  | inconclusive: 20 µM [inhibitor, partial curve, poor fit] |
| CN1[C@@H](CC(=O)c2ccccc2)CCC[C@H]1C[C@H](O)c1ccccc1 | inconclusive: -3.42% |  |
| O=P(N[C@@H](c1ccccc1)[C@@H]1C[C@H]1CO)(c1ccccc1)c1ccccc1 | inactive |  |
| O=C(COc1ccc(Br)cc1)N1CCN(Cc2c[nH]c3ccccc23)CC1 |  | inconclusive: 3.55 µM [inhibitor, single point] |
| Cc1ccc(Cl)cc1NC(=O)N(Cc1ccc2c(c1)OCO2)C1CCN(Cc2ccccc2)CC1 | inconclusive: -14.3% [at 46 µM] |  |
| CN(C)c1ccc(/C=C/C=C2/C(=O)NC(=O)N(c3ccccc3)C2=O)cc1 | inconclusive: -36.3% [at 46 µM] |  |
| C[N+](C)(C)CC(=O)Nc1ccc(Cl)cc1C(=O)c1ccccc1 | inconclusive: 19.6% [at 46 µM] |  |
| Cc1cc(/C=C2\C(=O)NC(=O)N(c3ccc(Cl)cc3)C2=O)c(C)n1-c1sc2c(c1C#N)CCCC2 | inactive |  |
| O=C(O)c1cc[c]([Hg][Cl])cc1 | inconclusive: -39.8% [at 46 µM] |  |
| CCSc1nnc([C@@H](N)Cc2c[nH]c3ccccc23)o1 | inactive |  |
| O=P(O)(O)C(Cl)(Cl)P(=O)(O)O | inconclusive: -7.29% |  |
| Cc1ccc(C2N(c3cc(C)on3)C(=O)C3CCCN32)cc1 (stereo unspecified) | inactive |  |
| CC(=O)O.CC(=O)O.[Cd] | inconclusive: 23.9% |  |
| Cc1c(C(=O)N2CCC3(CC2)OCCO3)oc2ccc(S(=O)(=O)N3CCOCC3)cc12 | inactive |  |
| CNCCC(Oc1ccc(C(F)(F)F)cc1)c1ccccc1 (stereo unspecified) |  | inconclusive: 1.41 µM [activator, partial curve] |
| COc1ccccc1N1CCN(Cc2c(F)cccc2Cl)CC1 | inactive |  |
| O=[N+]([O-])c1ccccc1CNCCc1ccc(F)cc1 | inactive |  |
| NC(=O)c1ncn([C@@H]2O[C@H](CO)[C@@H](O)[C@H]2O)n1 | inactive |  |

| Structure (SMILES) | ratio change, negative = inhibition | Potency |
| --- | --- | --- |
| O=C(Nc1cccc(OC(=O)N2CCOCC2)c1)N1CCOCC1 | inactive |  |
| CCCC[N+]1(C)C2CC(OC(=O)C(CO)c3ccccc3)CC1C1OC12 (stereo unspecified) | inconclusive: -0.204% |  |
| COc1cccc(NP(=O)(Oc2ccccc2Cl)Oc2ccccc2Cl)c1 | inconclusive: -18.9% |  |
| CCOC(=O)C(=O)NC1CCSC1=O (stereo unspecified) | inactive |  |
| O=c1[nH]c(=O)n(Cc2ccco2)c(O)c1C=NCc1ccco1 | inconclusive: 16.5% |  |
| c1ccc(C(c2ccccc2)N2CCN(c3ccc4ccccc4n3)CC2)cc1 |  | inconclusive: 35.5 µM [fluorescent, single point] |
| COc1ccc(OC)c(N2C(=O)NC(=O)C(CCc3ccncc3)(CCc3ccncc3)C2=O)c1 | inactive |  |
| COc1ccc(CCNCc2ccc(F)cc2)cc1OC | inactive |  |
| C[C@]12CCC(=O)C=C1CC[C@@H]1[C@@H]2CC[C@]2(C)C(=O)CC[C@@H]12 | inconclusive: -6.38% |  |
| CN(C)CCC=C1c2ccccc2CCc2ccccc21 | inconclusive: -27.2% |  |
| Cc1ccnc2c1NC(=O)c1cccnc1N2C1CC1 | inconclusive: -5.79% |  |
| NC1CCc2cc(O)c(O)cc2C1 (stereo unspecified) | inconclusive: -8.79% |  |
| CCC1CN(C)CCC1(OC(C)=O)c1ccccc1 (stereo unspecified) | inactive |  |
| O=C(c1cccs1)c1cn(Cc2ccccc2Cl)c2ccccc12 | inactive |  |
| C[C@H]1OC[C@@H](C[N+](C)(C)C)O1 | inconclusive: 38.8% [at 46 µM] |  |
| CN1CC(CO)=C[C@H]2c3cccc4[nH]cc(c34)C[C@H]21 | inconclusive: -4.26% |  |
| Cc1nn(Cc2ccccc2Cl)c(Cl)c1C(=O)OC(C(=O)NC(N)=O)C(C)C (stereo unspecified) | inconclusive: -8.22% |  |
| c1ccc2sc(C3(N4CCCCC4)CCCCC3)cc2c1 | inconclusive: -36.8% |  |
| CC(=O)Nc1cc(C(=O)N2CCC3(CC2)OCCO3)ccc1Sc1ccc(F)cc1 |  | inconclusive: 0.0891 µM [activator, full curve] |
| CN(C)c1ccc(C(=O)c2ccc(N(C)C)cc2)cc1 | inconclusive: 0.493% |  |
| CCOC(=O)C(O)(c1ccc(N(CC)C(=O)COc2ccccc2)cc1)C(F)(F)F (stereo unspecified) | inconclusive: -1.79% |  |
| C[C@]12CCC3C(CC[C@H]4C[C@H](O)CC[C@]34C)C1CC[C@@H]2C(=O)CO (stereo partly specified) | inconclusive: -18.7% |  |

Reformatted with tabs: entries from further up
Structure (SMILES)	ratio change, negative = inhibition	Potency
c1ccc2c3c([nH]c2c1)CNCC3	inconclusive: 22.5%	
O=C(COc1ccc(Br)cc1)N1CCN(Cc2c[nH]c3ccccc23)CC1		inconclusive: 3.55 µM [inhibitor, single point]
Cc1ccc(Cl)cc1NC(=O)N(Cc1ccc2c(c1)OCO2)C1CCN(Cc2ccccc2)CC1	inconclusive: -14.3% [at 46 µM]	
CC(=O)O.CC(=O)O.[Cd]	inconclusive: 23.9%	
O=c1[nH]c(=O)n(Cc2ccco2)c(O)c1C=NCc1ccco1	inconclusive: 16.5%	
Cc1ccnc2c1NC(=O)c1cccnc1N2C1CC1	inconclusive: -5.79%	

Remaining list, next part

| Structure (SMILES) | ratio change, negative = inhibition | Potency |
| --- | --- | --- |
| CC1CCN(S(=O)(=O)c2ccc(NN=C(C#N)C#N)cc2)CC1 | inactive |  |
| O=C(O)c1[nH]c(=O)[nH]c(=O)c1F | inconclusive: 1.28% [at 46 µM] |  |
| O=C1NC(=O)C(=Cc2coc3ccc(O)cc3c2=O)C(=O)N1 | inactive |  |
| CSC(=Nc1ccccc1)c1c(O)n(C)c(=O)n(C)c1=O |  | inconclusive: 35.5 µM [fluorescent, single point] |
| CN(C)C(Cc1ccccc1)C(=O)c1ccccc1 (stereo unspecified) | inconclusive: 11.9% |  |
| CN1CCN(C2=Nc3cc(Cl)ccc3Nc3ccccc32)CC1 | inconclusive: -32.7% and inconclusive: -3.02% | inconclusive: 8.91 µM [inhibitor, partial curve, poor fit] |
| COc1cccc(CN2CCCCC2c2cccnc2)c1 (stereo unspecified) | inconclusive: 11.8% |  |
| c1ccc2sc(SNC3CCCCC3)nc2c1 | inconclusive: -5.33% |  |
| c1ccc2c(c1)[nH]c1cnccc12 | inconclusive: -35% |  |
| CN1CCN(c2ccc3nccnc3c2)CC1 | inconclusive: -3.32% [at 46 µM] |  |
| CN1C(=O)CCS(=O)(=O)[C@@H]1c1ccc(Cl)cc1 | inconclusive: -13.2% |  |
| Oc1ccc(Br)cc1CN1CCN(c2ccccc2)CC1 | inconclusive: -36.5% |  |
| COc1ccc(/C=C2\C(=N\O)C3CCN2CC3)cc1 | inactive |  |
| Cc1ccc2c(c1)C1CN(C)CCC1N2S(=O)(=O)c1ccccc1 (stereo unspecified) | inconclusive: 17.5% |  |
| O=C(Nc1ccon1)c1cccn(Cc2cccc(Cl)c2)c1=O | inconclusive: -19.8% [at 46 µM] |  |
| CCOC(=O)C(O)(c1ccc(NC(=S)NC(=O)c2ccc(Cl)cc2Cl)c(C)c1)C(F)(F)F (stereo unspecified) |  | inconclusive: 8.91 µM [fluorescent, partial curve] |
| CC(=O)Nc1ccc(OC(=O)N(C)C)cc1 | inconclusive: 3.02% |  |
| CC[C@]1(c2cccc(O)c2)CCCCN(C)C1 | inconclusive: -21% |  |
| C=CCN1C(=O)/C(=C/c2cccs2)C(=O)NC1=S |  | inconclusive: 17.8 µM [inhibitor, partial curve] |
